The other results are listed elsewhere or left out.

The chains behind the UniProt entries cited, without tags or fusion partners. Where a name states a change or a piece, a line headed by the entry shows the natural chain unless it says otherwise.
UniProt P27449, whole entry, looked up: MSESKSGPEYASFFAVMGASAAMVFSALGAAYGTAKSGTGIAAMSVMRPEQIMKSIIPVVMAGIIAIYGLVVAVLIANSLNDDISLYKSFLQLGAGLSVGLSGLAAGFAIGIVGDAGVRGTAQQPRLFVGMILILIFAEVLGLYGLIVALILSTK
UniProt P14415, whole entry, looked up: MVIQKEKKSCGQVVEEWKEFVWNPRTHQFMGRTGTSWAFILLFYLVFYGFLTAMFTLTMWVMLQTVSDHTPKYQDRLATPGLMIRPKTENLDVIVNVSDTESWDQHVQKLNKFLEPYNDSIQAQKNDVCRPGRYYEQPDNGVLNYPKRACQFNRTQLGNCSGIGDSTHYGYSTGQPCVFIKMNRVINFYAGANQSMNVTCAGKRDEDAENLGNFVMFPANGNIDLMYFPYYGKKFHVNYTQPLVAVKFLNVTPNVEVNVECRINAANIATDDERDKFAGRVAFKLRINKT
UniProt Q6UWY0: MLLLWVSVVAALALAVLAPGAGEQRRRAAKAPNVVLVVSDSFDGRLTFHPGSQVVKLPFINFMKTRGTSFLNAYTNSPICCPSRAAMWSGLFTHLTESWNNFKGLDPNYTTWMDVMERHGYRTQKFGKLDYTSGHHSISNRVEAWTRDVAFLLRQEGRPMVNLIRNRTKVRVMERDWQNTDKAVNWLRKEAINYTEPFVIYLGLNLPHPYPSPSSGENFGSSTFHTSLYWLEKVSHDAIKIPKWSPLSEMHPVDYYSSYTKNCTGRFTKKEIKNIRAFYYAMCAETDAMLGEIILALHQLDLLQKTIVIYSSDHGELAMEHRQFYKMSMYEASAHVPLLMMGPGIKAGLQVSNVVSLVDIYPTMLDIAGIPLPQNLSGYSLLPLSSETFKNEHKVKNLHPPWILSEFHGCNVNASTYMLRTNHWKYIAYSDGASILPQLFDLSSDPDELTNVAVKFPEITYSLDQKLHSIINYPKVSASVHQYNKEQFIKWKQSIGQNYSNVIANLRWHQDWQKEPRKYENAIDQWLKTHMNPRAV
UniProt Q8NHH9: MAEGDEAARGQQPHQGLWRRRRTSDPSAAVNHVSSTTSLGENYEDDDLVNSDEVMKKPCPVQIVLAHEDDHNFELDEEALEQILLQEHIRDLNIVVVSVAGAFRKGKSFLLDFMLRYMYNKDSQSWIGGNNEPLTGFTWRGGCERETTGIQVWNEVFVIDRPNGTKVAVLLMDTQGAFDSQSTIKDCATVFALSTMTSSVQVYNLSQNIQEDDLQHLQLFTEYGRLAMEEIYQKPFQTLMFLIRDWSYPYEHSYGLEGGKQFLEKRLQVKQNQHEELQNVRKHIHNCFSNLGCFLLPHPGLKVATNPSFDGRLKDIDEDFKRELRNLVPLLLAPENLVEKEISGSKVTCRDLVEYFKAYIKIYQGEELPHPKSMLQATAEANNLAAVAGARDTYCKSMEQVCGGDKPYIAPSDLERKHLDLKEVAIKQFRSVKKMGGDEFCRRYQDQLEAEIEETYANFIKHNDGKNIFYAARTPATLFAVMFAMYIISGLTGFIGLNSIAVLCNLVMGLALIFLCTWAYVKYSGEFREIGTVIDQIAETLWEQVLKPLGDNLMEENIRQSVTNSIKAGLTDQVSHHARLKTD
UniProt Q96KC2: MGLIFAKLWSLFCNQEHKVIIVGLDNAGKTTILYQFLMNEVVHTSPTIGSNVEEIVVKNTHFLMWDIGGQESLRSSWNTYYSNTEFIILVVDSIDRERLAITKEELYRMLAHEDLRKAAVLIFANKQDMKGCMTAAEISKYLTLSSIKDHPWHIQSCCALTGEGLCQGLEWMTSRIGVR
UniProt Q8IXJ9: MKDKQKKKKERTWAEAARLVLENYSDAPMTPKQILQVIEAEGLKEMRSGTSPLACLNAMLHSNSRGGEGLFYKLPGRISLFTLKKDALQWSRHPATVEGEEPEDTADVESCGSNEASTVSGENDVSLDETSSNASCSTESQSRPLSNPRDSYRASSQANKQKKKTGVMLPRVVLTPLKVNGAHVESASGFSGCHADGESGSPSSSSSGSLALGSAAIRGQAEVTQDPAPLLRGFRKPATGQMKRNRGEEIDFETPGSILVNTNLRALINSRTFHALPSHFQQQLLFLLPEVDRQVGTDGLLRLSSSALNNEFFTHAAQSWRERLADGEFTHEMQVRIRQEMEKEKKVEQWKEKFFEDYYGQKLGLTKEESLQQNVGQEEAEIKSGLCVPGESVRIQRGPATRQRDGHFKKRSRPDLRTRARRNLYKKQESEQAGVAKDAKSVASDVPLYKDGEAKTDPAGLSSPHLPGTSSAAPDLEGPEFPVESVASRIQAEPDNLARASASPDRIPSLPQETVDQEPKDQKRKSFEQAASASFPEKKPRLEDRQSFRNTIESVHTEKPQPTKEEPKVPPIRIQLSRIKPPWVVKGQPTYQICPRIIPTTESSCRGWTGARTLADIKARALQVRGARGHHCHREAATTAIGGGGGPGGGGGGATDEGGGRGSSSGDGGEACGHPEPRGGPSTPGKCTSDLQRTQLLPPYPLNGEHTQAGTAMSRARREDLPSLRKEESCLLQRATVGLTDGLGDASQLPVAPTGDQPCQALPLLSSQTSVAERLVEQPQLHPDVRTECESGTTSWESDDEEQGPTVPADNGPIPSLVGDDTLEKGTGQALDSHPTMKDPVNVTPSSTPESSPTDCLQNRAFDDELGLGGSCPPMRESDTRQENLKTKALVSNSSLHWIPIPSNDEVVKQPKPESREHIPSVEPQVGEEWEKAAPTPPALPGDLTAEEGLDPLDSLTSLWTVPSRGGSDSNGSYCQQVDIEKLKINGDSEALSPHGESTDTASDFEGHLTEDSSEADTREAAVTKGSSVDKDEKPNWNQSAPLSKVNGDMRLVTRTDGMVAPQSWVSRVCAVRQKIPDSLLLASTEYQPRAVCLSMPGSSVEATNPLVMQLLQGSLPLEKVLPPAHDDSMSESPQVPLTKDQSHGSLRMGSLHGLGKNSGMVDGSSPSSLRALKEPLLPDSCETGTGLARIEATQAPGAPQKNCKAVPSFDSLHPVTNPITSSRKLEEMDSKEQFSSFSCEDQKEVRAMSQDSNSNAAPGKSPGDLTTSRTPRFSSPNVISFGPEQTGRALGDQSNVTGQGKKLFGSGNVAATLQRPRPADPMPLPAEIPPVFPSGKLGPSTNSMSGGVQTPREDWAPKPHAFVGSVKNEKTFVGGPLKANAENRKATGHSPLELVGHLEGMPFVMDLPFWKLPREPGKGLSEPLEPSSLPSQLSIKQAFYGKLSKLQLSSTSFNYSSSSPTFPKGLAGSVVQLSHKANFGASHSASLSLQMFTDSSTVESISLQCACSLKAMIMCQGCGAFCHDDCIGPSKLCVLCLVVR
UniProt Q9Y689: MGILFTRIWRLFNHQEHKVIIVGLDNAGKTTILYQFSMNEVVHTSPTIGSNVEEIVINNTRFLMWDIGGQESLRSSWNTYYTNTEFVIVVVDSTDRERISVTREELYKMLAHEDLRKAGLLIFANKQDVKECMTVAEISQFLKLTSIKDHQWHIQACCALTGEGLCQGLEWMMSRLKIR
UniProt O95260: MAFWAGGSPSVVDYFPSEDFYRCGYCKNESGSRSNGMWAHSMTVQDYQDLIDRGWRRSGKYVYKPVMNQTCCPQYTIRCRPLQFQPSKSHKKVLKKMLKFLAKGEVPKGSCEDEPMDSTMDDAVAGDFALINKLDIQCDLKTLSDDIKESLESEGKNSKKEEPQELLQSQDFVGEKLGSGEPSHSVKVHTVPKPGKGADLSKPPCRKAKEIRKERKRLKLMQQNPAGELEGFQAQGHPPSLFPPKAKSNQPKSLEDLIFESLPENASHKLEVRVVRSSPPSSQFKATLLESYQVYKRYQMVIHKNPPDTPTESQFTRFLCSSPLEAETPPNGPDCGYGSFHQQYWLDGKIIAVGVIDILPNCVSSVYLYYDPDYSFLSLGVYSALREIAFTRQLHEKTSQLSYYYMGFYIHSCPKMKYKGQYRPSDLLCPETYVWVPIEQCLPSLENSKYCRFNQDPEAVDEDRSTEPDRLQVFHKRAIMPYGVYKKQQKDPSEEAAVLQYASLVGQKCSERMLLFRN
UniProt Q9NWL6: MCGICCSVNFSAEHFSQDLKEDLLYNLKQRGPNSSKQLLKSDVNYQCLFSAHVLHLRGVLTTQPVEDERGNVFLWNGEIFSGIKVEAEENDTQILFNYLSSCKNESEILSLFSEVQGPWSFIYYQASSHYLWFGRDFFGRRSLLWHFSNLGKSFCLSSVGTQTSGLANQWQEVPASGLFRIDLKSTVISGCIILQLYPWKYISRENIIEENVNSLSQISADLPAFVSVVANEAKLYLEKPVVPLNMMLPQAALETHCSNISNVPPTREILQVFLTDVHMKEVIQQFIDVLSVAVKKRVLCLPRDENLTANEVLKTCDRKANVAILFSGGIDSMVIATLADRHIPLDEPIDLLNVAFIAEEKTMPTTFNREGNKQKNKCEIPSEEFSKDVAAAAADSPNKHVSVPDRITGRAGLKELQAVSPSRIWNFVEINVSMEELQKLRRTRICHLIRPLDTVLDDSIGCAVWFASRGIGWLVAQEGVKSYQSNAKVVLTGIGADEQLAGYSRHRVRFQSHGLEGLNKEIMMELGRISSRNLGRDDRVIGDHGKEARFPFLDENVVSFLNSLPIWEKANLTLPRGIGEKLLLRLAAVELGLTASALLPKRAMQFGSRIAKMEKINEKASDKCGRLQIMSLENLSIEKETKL
UniProt Q2TAZ0: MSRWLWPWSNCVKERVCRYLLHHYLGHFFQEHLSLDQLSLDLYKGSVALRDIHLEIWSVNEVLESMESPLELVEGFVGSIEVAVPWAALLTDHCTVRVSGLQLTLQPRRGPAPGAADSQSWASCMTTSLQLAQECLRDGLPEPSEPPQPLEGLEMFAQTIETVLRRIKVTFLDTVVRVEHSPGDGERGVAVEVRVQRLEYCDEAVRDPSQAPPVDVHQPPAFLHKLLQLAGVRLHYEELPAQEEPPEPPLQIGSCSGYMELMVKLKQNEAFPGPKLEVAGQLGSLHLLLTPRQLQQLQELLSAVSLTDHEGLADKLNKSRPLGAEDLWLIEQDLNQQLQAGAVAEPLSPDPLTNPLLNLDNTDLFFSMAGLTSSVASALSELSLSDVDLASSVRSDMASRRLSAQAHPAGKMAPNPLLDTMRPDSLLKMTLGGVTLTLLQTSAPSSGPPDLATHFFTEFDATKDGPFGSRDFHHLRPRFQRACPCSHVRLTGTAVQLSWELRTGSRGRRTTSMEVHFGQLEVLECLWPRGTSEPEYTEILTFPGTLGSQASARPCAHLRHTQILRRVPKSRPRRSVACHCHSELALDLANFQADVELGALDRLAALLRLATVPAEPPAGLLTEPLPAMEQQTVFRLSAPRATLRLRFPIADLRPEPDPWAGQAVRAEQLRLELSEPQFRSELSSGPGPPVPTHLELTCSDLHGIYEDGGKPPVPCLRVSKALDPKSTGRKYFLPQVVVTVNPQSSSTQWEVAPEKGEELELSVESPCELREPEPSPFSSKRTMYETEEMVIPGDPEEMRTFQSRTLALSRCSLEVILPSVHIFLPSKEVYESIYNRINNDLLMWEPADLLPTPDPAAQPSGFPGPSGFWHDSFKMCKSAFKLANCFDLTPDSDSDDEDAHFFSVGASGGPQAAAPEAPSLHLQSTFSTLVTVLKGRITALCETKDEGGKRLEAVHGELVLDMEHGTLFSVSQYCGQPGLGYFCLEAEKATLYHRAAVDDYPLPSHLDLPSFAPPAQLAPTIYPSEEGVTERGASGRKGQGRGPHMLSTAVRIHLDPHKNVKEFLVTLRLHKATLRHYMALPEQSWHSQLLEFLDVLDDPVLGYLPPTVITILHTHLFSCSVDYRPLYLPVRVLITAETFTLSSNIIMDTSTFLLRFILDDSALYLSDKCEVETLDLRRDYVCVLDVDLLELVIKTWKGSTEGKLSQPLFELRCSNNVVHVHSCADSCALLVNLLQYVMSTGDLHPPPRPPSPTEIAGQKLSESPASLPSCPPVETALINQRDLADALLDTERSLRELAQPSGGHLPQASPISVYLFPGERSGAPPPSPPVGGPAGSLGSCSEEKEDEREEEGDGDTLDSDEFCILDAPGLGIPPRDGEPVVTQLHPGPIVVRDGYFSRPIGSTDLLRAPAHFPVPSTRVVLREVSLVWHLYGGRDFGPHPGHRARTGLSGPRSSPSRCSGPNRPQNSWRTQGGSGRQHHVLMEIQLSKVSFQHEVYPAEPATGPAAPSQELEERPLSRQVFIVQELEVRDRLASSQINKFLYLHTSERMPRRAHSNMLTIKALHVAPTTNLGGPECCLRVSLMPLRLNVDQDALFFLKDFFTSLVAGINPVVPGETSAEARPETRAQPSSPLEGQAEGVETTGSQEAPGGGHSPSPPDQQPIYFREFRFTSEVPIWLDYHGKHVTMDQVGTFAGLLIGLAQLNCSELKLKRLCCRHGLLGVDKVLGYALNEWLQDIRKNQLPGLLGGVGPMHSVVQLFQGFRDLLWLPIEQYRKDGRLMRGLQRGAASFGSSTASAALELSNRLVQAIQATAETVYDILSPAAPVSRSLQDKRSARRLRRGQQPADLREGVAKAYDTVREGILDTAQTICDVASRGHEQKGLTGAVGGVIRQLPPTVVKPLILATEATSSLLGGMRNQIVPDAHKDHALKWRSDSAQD

Compound in the assay: CC[C@H](C)[C@@H](C(=O)N[C@@H]([C@@H](C)O)C(=O)N[C@@H](CC(C)C)C(=O)[C@]1(CO1)C)NC(=O)[C@H]([C@@H](C)CC)N(C)C(=O)C [epoxomicin]
Put plainly: log2 fold change, soluble protein after heating vs DMSO (PISA); higher = thermal stabilisation; K562 cells, 10 uM, 30 min; active = over 0.2 and 3.5 SD of the protein, either way, in both replicates (recomputed). An outline of the steps:
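K562 cells at 2×10^6 cells/mL were given 10 μM compound for 30 min. Aliquots then went through 3 min of heating across 48°C-58°C, were pooled, and were extracted in PBS with 0.5% NP-40 at 4°C, and the supernatant after 21,000xg for 90 min was quantified by TMTpro 16plex LC-MS/MS with channel sums equalised. Thermal stability relative to control samples, from duplicates, is given as log2 fold change.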
For the target ATP6V0C (UniProt P27449), the log2 fold change is inactive: -0.068.
On to ATPSCKMT (UniProt Q6P4H8), for which the log2 fold change is inactive: 0.019.
To ATP1B2 (UniProt P14415) belongs inactive: -0.109; to ARSK (UniProt Q6UWY0), inactive: 0.045.
To ATL2 (UniProt Q8NHH9) belongs inactive: 0.092.
Consider ATG10 (UniProt Q9H0Y0), for which the log2 fold change is inactive: -0.018.
Then ATF3 (UniProt P18847), with inactive: 0.14; and ASB6 (UniProt Q9NWX5), with inactive: -0.094.
Then ARL5B (UniProt Q96KC2), with inactive: -0.124.
ARSA (UniProt P15289): the log2 fold change was inactive: -0.003.
As to ASXL1 (UniProt Q8IXJ9), the log2 fold change is inactive: 0.131.
On to ARRDC1 (UniProt Q8N5I2), for which the log2 fold change is inactive: -0.057.
To ARL5A (UniProt Q9Y689) belongs inactive: 0.179; to ATF7 isoform 6 (UniProt P17544), inactive: -0.028.
ATF7IP isoform 4 (UniProt Q6VMQ6): the log2 fold change was inactive: 0.137.
In the case of ASS1 (UniProt P00966), the log2 fold change was inactive: 0.025.
Then ASCC2 (UniProt Q9H1I8), with inactive: 0.027; and ATG12 (UniProt O94817), with inactive: -0.013; and ATP5F1B (UniProt F8W0P7), with inactive: 0.103.
As for ATE1 (UniProt O95260), the log2 fold change was inactive: 0.07.
To ASNSD1 (UniProt Q9NWL6) belongs inactive: -0.006; to ASF1B (UniProt Q9NVP2), inactive: -0.058; to ATG2A (UniProt Q2TAZ0), inactive: -0.209.

(Values after the supplement of paper PMC10849652.)
